Reference: patent US20230183662
Tags and fusion partners may be left off the protein sequences shown.

Key:
[1] = tested on: T1, M.DraR1 N4-cytosine DNA methyltransferase (Deinococcus radiodurans R1); assay: activity assay; conditions: in vitro methylation protects from SacII; 1 uM protein, 50-200 mM KCl, Tris-HCl pH 7.5-8.0, 20-100 uM SAM; optimum 25-37 C, weak at 4 C and 45-55 C; purified recombinant protein; only the site is given
T1 sequence (limits assumed): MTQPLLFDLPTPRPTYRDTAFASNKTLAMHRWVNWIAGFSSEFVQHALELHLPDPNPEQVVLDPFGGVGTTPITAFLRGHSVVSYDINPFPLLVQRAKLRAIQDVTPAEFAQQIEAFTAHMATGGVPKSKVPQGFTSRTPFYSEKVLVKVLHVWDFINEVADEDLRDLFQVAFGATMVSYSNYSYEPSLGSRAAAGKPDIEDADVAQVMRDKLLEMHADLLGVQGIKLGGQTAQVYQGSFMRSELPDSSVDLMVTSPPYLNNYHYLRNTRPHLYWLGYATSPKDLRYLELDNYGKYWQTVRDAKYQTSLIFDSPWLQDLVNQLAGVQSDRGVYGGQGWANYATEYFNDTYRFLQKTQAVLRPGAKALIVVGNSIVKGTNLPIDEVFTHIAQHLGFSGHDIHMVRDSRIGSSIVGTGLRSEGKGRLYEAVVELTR

[2] = tested on: T1, M.DraR1 N4-cytosine DNA methyltransferase (Deinococcus radiodurans R1); assay: activity in cells; conditions: plasmid from E. coli ER2796 resistant to SacII; unmethylated PCR product is digested; protein in cells; only the site is given

Sequence	activity on this sequence [1]	activity on this sequence [2]
CCGCGG (double strand) [CCGCGG motif in HindIII-linearized pRRS-M.DraR1 plasmid]	active	–
CCGCGG (double strand) [CCGCGG motif in pRRS-M.DraR1 plasmid in E. coli ER2796]	–	active
